This is one part of the list.
Tests used:
Experiment in all cases: log2 fold change, soluble protein after heating vs DMSO (PISA); higher = thermal stabilisation; K562 cells, 10 uM, 30 min; active = over 0.2 and 3.5 SD of the protein, either way, in both replicates (recomputed)
[1] = compound: CC1=C(C=C(C=C1)NC(=O)C2=CC(=CC=C2)C(C)(C)C#N)NC3=CC4=C(C=C3)N=CN(C4=O)C
How it was run: (§1)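 K562 cells at 2×10^6 cells/mL were given 10 μM compound for 30 min. Aliquots then went through 3 min of heating across 48°C-58°C, were pooled, and were extracted in PBS with 0.5% NP-40 at 4°C, and the supernatant after 21,000xg for 90 min was quantified by TMTpro 16plex LC-MS/MS with channel sums equalised. Thermal stability relative to control samples, from duplicates, is given as log2 fold change.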

By UniProt entry, the sequences of proteins in these tests, tags left out. Where a name states a change or a piece, a line headed by the entry shows the natural chain unless it says otherwise.
UniProt Q96T76: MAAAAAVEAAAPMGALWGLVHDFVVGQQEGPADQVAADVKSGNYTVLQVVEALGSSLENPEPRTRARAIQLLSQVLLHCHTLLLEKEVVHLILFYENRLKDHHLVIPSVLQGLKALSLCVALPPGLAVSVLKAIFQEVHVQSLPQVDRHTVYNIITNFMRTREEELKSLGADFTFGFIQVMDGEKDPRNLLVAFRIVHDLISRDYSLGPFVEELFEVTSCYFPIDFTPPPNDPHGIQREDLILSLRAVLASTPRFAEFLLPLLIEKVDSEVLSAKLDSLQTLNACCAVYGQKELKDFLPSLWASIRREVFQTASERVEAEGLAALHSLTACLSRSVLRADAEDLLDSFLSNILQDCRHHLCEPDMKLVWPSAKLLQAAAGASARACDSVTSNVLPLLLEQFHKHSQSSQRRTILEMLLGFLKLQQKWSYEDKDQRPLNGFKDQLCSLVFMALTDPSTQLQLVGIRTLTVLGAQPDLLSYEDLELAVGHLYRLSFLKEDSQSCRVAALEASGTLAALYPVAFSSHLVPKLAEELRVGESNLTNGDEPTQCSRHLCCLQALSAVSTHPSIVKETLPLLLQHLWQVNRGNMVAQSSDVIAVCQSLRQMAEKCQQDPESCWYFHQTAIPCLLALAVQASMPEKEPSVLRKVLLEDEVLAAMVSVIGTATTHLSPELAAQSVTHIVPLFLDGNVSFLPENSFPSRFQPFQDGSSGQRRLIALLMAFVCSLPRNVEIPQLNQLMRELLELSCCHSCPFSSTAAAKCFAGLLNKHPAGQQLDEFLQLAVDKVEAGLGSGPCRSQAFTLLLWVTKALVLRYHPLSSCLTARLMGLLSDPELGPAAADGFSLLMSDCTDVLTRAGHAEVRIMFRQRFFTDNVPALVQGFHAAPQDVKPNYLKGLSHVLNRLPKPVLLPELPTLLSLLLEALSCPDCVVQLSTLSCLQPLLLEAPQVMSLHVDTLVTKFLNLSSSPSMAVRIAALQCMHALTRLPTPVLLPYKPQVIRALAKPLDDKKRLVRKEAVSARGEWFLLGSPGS
UniProt Q9NV56, whole entry, looked up: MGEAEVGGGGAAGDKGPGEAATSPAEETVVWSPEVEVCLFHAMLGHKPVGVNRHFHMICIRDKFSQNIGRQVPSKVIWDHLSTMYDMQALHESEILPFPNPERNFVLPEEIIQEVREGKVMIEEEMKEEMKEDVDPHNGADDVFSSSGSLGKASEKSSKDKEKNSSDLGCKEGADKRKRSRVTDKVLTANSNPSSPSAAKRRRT
UniProt Q00013: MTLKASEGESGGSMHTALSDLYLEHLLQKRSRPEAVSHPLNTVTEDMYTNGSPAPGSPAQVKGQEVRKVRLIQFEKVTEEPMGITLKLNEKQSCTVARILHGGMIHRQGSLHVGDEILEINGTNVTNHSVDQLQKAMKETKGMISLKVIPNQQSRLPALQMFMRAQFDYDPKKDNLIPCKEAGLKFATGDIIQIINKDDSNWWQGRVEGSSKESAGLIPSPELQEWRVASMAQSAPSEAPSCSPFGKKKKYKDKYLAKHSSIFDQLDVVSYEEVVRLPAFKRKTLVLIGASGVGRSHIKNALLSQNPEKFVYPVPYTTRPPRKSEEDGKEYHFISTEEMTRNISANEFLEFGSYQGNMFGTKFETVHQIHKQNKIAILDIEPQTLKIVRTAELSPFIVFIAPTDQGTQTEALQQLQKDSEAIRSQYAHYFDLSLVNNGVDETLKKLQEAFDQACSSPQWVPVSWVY
UniProt Q8WV92, whole entry, looked up: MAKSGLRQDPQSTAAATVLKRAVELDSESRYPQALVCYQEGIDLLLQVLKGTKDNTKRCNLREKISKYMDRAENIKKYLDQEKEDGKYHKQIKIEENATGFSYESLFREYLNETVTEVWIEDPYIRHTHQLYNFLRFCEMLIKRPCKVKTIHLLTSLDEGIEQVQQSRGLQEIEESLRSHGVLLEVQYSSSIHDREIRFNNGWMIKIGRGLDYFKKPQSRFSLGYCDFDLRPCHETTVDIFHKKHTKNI
UniProt P29372, whole entry, looked up: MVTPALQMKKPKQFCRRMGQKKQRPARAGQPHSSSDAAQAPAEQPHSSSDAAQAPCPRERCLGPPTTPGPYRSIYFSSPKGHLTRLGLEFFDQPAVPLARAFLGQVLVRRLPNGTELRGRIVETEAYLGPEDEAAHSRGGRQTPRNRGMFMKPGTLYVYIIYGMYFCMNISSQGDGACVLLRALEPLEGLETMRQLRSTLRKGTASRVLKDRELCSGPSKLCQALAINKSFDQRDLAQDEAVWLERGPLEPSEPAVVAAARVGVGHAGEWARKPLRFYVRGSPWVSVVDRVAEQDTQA
UniProt Q5TGZ0: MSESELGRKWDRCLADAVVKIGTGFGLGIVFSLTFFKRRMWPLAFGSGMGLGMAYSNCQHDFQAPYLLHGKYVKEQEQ
UniProt Q6WCQ1: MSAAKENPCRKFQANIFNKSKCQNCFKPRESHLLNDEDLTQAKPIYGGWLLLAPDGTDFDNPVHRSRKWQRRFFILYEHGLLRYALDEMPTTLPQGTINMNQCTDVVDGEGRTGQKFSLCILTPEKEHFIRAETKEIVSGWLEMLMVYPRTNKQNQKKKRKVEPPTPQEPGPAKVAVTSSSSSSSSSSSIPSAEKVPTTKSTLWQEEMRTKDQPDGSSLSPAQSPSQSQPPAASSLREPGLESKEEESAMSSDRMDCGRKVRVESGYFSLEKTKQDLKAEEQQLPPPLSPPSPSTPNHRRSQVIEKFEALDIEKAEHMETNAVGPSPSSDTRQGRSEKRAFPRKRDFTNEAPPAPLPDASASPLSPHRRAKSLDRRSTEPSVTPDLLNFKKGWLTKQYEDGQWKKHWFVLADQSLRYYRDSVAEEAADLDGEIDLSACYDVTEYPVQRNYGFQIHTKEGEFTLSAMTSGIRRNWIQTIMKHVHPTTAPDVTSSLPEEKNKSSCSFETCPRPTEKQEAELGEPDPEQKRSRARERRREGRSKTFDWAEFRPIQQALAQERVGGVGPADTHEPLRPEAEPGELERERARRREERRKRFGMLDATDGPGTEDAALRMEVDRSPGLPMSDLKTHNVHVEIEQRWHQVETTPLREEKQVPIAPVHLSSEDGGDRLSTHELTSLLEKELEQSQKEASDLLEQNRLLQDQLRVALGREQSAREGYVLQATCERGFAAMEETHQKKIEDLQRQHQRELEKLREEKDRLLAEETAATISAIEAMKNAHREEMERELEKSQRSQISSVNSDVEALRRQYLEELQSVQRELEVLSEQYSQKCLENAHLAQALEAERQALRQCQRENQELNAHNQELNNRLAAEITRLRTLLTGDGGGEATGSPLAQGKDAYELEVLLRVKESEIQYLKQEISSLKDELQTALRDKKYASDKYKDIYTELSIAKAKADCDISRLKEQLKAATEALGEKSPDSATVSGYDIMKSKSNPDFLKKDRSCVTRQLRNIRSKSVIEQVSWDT
UniProt P51948: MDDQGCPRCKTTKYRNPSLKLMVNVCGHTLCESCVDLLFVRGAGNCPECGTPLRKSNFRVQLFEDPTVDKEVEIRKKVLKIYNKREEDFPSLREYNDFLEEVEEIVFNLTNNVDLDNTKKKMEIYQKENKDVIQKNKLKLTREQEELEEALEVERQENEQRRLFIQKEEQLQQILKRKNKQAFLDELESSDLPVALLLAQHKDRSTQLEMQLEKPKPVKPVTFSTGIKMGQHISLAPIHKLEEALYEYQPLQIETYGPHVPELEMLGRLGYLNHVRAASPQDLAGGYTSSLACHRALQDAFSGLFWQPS
UniProt Q9UL63, whole entry, looked up: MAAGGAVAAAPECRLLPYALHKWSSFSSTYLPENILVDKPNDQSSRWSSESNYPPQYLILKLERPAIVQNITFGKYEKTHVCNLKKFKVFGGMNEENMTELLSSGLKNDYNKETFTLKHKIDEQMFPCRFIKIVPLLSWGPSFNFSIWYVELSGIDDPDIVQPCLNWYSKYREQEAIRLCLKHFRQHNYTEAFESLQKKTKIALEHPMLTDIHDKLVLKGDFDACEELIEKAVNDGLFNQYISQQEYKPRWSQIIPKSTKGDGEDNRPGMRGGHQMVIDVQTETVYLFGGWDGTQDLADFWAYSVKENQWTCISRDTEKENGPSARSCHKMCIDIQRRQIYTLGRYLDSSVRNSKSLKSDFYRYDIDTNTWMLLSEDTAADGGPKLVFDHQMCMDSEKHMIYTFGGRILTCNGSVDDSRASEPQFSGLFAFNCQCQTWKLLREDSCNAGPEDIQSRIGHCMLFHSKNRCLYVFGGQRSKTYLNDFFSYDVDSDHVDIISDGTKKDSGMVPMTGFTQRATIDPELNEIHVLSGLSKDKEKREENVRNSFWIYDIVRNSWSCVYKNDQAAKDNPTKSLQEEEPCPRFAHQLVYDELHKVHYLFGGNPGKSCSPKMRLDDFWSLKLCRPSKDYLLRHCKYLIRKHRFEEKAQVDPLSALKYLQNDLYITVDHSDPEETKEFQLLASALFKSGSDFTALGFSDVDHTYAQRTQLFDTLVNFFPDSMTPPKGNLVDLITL
UniProt Q9NZW5: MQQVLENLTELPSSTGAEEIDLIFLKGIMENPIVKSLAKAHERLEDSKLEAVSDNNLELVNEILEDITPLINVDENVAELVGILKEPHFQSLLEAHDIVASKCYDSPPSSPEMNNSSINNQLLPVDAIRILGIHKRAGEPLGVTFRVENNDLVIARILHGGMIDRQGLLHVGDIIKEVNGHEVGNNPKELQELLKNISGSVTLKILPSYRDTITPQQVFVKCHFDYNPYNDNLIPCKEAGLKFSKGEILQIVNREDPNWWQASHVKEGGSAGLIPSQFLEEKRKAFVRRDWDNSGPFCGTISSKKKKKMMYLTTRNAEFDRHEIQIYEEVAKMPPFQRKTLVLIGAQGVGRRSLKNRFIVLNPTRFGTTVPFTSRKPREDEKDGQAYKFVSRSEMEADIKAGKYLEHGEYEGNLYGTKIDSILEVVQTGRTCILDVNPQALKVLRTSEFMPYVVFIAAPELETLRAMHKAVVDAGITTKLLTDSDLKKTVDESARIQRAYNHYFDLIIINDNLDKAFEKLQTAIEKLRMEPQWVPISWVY
UniProt O95297: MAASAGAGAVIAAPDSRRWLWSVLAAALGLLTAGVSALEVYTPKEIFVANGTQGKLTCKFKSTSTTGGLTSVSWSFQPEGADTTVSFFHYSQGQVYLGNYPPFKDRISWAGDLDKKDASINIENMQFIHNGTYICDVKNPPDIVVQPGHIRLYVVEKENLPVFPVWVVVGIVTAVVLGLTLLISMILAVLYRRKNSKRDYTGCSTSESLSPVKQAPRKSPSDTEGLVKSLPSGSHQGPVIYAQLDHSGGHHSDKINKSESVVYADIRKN
UniProt Q9UJG1: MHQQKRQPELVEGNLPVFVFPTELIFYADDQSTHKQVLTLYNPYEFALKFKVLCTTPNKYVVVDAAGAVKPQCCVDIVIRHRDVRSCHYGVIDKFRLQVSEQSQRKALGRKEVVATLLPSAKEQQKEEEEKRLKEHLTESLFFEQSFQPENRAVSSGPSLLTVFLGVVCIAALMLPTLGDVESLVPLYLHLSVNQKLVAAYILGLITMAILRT
UniProt Q9BU76: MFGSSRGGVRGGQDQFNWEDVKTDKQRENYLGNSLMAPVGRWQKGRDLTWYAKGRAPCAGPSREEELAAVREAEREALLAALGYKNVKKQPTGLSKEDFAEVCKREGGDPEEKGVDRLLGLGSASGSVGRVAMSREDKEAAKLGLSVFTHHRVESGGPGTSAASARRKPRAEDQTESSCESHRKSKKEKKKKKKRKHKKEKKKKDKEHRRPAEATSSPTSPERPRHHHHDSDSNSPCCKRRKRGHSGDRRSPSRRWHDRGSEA
UniProt Q8NBR6: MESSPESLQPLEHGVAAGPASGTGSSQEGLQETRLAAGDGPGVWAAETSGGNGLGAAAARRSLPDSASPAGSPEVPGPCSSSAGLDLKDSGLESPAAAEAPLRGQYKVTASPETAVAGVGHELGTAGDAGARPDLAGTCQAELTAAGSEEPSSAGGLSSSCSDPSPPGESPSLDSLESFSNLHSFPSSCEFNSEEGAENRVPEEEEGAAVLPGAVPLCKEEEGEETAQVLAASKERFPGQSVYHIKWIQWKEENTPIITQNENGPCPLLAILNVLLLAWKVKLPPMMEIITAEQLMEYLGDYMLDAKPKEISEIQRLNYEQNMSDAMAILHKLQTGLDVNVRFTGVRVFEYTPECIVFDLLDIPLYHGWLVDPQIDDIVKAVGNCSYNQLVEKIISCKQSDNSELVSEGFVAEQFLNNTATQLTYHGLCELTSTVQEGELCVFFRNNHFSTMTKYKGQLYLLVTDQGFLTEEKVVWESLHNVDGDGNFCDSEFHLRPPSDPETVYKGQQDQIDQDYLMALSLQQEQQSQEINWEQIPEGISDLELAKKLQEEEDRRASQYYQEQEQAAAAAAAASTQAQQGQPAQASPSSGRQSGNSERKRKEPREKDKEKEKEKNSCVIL
UniProt Q96BX8: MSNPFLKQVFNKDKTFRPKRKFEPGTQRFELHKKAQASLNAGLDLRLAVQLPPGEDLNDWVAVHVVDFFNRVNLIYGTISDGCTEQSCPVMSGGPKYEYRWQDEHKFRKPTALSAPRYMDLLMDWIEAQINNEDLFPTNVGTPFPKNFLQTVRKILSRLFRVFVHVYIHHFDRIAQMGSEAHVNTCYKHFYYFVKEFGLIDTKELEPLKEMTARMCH

[2] = compound: CC1=C(C=C(C=C1)NC(=O)C2=CC(=CC=C2)N(C)C)NC(=O)C3=CC=C(C=C3)O
How it was run: as §1

[3] = compound: CC1=CC=C(C=C1)SC2=C3C=C(SC3=CN=C2)C(=O)N
How it was run: as §1

[4] = compound: CC1=NC(=CC=C1)C2=C(N=C(N2)C(C)(C)C)C3=CC4=NC=CN=C4C=C3
How it was run: as §1

Nexturastat A = compound: CCCCN(Cc1ccc(C(=O)NO)cc1)C(=O)Nc1ccccc1 [Nexturastat A]
How it was run: as §1

vemurafenib = compound: CCCS(=O)(=O)Nc1ccc(F)c(C(=O)c2c[nH]c3ncc(-c4ccc(Cl)cc4)cc23)c1F [vemurafenib]
How it was run: as §1

[5] = compound: CCCS(=O)(=O)Nc1ccc(F)c(C(=O)c2c[nH]c3ncc(Cl)cc23)c1F
How it was run: as §1

[6] = compound: CCCc1cc(C)[nH]c(=O)c1CNC(=O)c1cc(-c2ccnc(N3CCN(C)CC3)c2)cc2c1cnn2C(C)C
How it was run: as §1

givinostat = compound: CCN(CC)Cc1ccc2cc(COC(=O)Nc3ccc(C(=O)NO)cc3)ccc2c1 [givinostat]
How it was run: as §1

barasertib = compound: CCN(CCCOc1ccc2c(Nc3cc(CC(=O)Nc4cccc(F)c4)[nH]n3)ncnc2c1)CCOP(=O)(O)O [barasertib]
How it was run: as §1

Measured: log2 fold change

MMS19 isoform 8 (UniProt Q96T76)
inactive: [1] -0.022 | [2] -0.029 | [3] 0 | [4] 0.067 | Nexturastat A 0.051 | vemurafenib 0.047 | [5] 0.1 | [6] 0.061 | givinostat -0.061 | barasertib 0.063

MRGBP (UniProt Q9NV56)
inactive: [1] -0.036 | [2] -0.036 | [3] -0.044 | [4] 0.026 | Nexturastat A -0.055 | vemurafenib 0.018 | [5] 0.068 | [6] -0.096 | givinostat -0.066 | barasertib 0.037

MPP1 (UniProt Q00013)
inactive: [1] 0.117 | [2] -0.052 | [3] 0.043 | [4] 0.025 | Nexturastat A 0.002 | vemurafenib 0.029 | [5] 0.04 | [6] 0.053 | givinostat 0.062 | barasertib 0.034

MRPL50 (UniProt Q8N5N7)
inactive: [1] -0.09 | [2] -0.04 | [3] 0.175 | [4] -0.031 | Nexturastat A 0.208 | vemurafenib 0.034 | [5] 0.244 | [6] -0.058 | givinostat 0.05 | barasertib -0.057

MKI67 (UniProt P46013)
inactive: [1] -0.041 | [2] -0.016 | [3] -0.025 | [4] -0.016 | Nexturastat A 0.154 | vemurafenib -0.067 | [5] 0.034 | [6] -0.028 | givinostat 0.09 | barasertib 0.011

MRPL13 (UniProt Q9BYD1)
inactive: [1] -0.004 | [2] -0.036 | [3] -0.104 | [4] -0.161 | Nexturastat A 0.175 | vemurafenib -0.017 | [5] -0.05 | [6] 0.012 | givinostat 0.037 | barasertib -0.031

MITD1 (UniProt Q8WV92)
inactive: [1] -0.124 | [2] 0.072 | [3] -0.043 | [4] -0.043 | Nexturastat A -0.026 | vemurafenib 0.069 | [5] 0 | [6] -0.093 | givinostat -0.047 | barasertib 0.042

MRPL55 isoform 2 (UniProt Q7Z7F7)
inactive: [1] 0.121 | [2] -0.055 | [3] 0.074 | [4] -0.064 | Nexturastat A 0.017 | vemurafenib -0.023 | [5] 0.003 | [6] -0.036 | givinostat 0.059 | barasertib 0.037

MRPL32 (UniProt Q9BYC8)
inactive: [1] 0.032 | [2] -0.004 | [3] -0.081 | [4] -0.037 | Nexturastat A 0.174 | vemurafenib -0.112 | [5] -0.096 | [6] 0.051 | givinostat -0.065 | barasertib -0.063

MPG (UniProt P29372)
inactive: [1] -0.011 | [2] 0.012 | [3] 0.015 | [4] 0.051 | Nexturastat A 0.086 | vemurafenib -0.007 | [5] 0 | [6] -0.002 | givinostat 0.017 | barasertib -0.002

MICAL3 (UniProt Q7RTP6)
inactive: [1] 0.016 | [2] 0.061 | [3] -0.012 | [4] 0.001 | Nexturastat A -0.035 | vemurafenib 0.026 | [5] -0.065 | [6] 0.045 | givinostat 0.005 | barasertib 0.004

MICOS10 (UniProt Q5TGZ0)
inactive: [1] 0.171 | [2] -0.177 | [3] 0.148 | [4] -0.002 | Nexturastat A -0.218 | vemurafenib 0.067 | [5] 0.049 | [6] -0.106 | givinostat -0.168 | barasertib 0.137

MPC2 (UniProt O95563)
inactive: [1] 0.001 | [2] 0.014 | [3] 0.057 | [4] 0.017 | Nexturastat A -0.063 | vemurafenib 0.009 | [5] -0.028 | [6] -0.103 | givinostat 0.031 | barasertib -0.012

MRPL30 isoform 2 (UniProt Q8TCC3)
inactive: [1] 0.096 | [2] -0.09 | [3] -0.063 | [4] -0.075 | Nexturastat A 0.284 | vemurafenib -0.066 | [5] 0.026 | [6] 0.084 | givinostat 0.06 | barasertib -0.036

MRPL20 (UniProt Q9BYC9)
inactive: [1] 0.054 | [2] -0.072 | [3] -0.072 | [4] -0.186 | Nexturastat A 0.151 | vemurafenib -0.103 | [5] -0.039 | [6] 0.055 | givinostat 0.058 | barasertib -0.048

MRPL24 (UniProt Q96A35)
inactive: [1] 0.043 | [2] -0.104 | [3] -0.05 | [4] -0.058 | Nexturastat A 0.287 | vemurafenib -0.044 | [5] 0.016 | [6] 0.145 | givinostat -0.02 | barasertib -0.066

MRPL39 (UniProt Q9NYK5)
inactive: [1] 0.028 | [2] -0.049 | [3] -0.076 | [4] -0.048 | Nexturastat A 0.142 | vemurafenib -0.029 | [5] 0.008 | [6] -0.067 | givinostat -0.002 | barasertib -0.007

MPRIP isoform 2 (UniProt Q6WCQ1)
inactive: [1] -0.026 | [2] -0.017 | [3] 0.042 | [4] -0.279 | Nexturastat A 0.178 | vemurafenib -0.032 | [5] 0.079 | [6] -0.259 | givinostat -0.014 | barasertib 0.149

MRPL43 isoform 4 (UniProt Q8N983)
inactive: [1] 0.116 | [2] -0.04 | [3] -0.052 | [4] -0.068 | Nexturastat A 0.129 | vemurafenib -0.108 | [5] -0.073 | [6] 0.008 | givinostat 0.061 | barasertib -0.004

MNAT1 (UniProt P51948)
inactive: [1] 0.004 | [2] -0.006 | [3] 0.001 | [4] 0.001 | Nexturastat A 0.043 | vemurafenib -0.006 | [5] 0.039 | [6] -0.037 | givinostat 0.069 | barasertib -0.003

MRPL40 (UniProt Q9NQ50)
inactive: [1] 0.102 | [2] 0.008 | [3] -0.083 | [4] -0.061 | Nexturastat A 0.083 | vemurafenib -0.068 | [5] -0.135 | [6] 0.013 | givinostat -0.033 | barasertib -0.09

MKLN1 (UniProt Q9UL63)
inactive: [1] 0.026 | [2] -0.035 | [3] -0.016 | [4] -0.04 | Nexturastat A 0.059 | vemurafenib -0.05 | [5] -0.005 | [6] 0.038 | givinostat -0.01 | barasertib 0.008

MPP6 (UniProt Q9NZW5)
inactive: [1] 0.045 | [2] -0.009 | [3] 0.004 | [4] 0.013 | Nexturastat A -0.036 | vemurafenib 0.005 | [5] -0.01 | [6] 0.016 | givinostat -0.038 | barasertib 0.006

MPZL1 (UniProt O95297)
inactive: [1] -0.035 | [2] -0.011 | [3] -0.026 | [4] 0.013 | Nexturastat A -0.012 | vemurafenib -0.027 | [5] -0.068 | [6] -0.005 | givinostat -0.03 | barasertib 0.011

MRPL33 (UniProt O75394)
inactive: [1] 0.107 | [2] -0.1 | [3] -0.044 | [4] 0.006 | Nexturastat A 0.197 | vemurafenib -0.003 | [5] 0.063 | [6] 0.017 | givinostat 0.012 | barasertib -0.066

MIER2 (UniProt Q8N344)
inactive: Nexturastat A -0.073 | vemurafenib -0.064 | givinostat -0.055

Six successive records from above, for reference:
MRPL40 (UniProt Q9NQ50)
inactive: [1] 0.102 | [2] 0.008 | [3] -0.083 | [4] -0.061 | Nexturastat A 0.083 | vemurafenib -0.068 | [5] -0.135 | [6] 0.013 | givinostat -0.033 | barasertib -0.09

MKLN1 (UniProt Q9UL63)
inactive: [1] 0.026 | [2] -0.035 | [3] -0.016 | [4] -0.04 | Nexturastat A 0.059 | vemurafenib -0.05 | [5] -0.005 | [6] 0.038 | givinostat -0.01 | barasertib 0.008

MPP6 (UniProt Q9NZW5)
inactive: [1] 0.045 | [2] -0.009 | [3] 0.004 | [4] 0.013 | Nexturastat A -0.036 | vemurafenib 0.005 | [5] -0.01 | [6] 0.016 | givinostat -0.038 | barasertib 0.006

MPZL1 (UniProt O95297)
inactive: [1] -0.035 | [2] -0.011 | [3] -0.026 | [4] 0.013 | Nexturastat A -0.012 | vemurafenib -0.027 | [5] -0.068 | [6] -0.005 | givinostat -0.03 | barasertib 0.011

MRPL33 (UniProt O75394)
inactive: [1] 0.107 | [2] -0.1 | [3] -0.044 | [4] 0.006 | Nexturastat A 0.197 | vemurafenib -0.003 | [5] 0.063 | [6] 0.017 | givinostat 0.012 | barasertib -0.066

MIER2 (UniProt Q8N344)
inactive: Nexturastat A -0.073 | vemurafenib -0.064 | givinostat -0.055

(listing goes on)

MOSPD1 isoform 3 (UniProt Q9UJG1)
inactive: [6] -0.018 | givinostat 0.02

MMTAG2 (UniProt Q9BU76)
inactive: [1] 0.048 | [2] 0.021 | [3] -0.056 | [4] -0.033 | vemurafenib -0.026 | [5] -0.015 | [6] 0.313 | givinostat 0.065 | barasertib -0.137

MINDY2 (UniProt Q8NBR6)
inactive: Nexturastat A 0.031 | [6] -0.089 | givinostat -0.082

MOB3A (UniProt Q96BX8)
inactive: [1] 0.227 | [2] 0.299 | [3] 0.035 | [4] 0 | vemurafenib -0.081 | [5] 0.125 | [6] -0.056 | givinostat -0.008 | barasertib 0.071
